Record: PubChem BioAssay AID504764 (Drosophila RNAi Screening Center, 2011)
Purpose: 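Genome-wide screen for regulators of Notch-driven gene expression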 (primary screen). System: Drosophila Kc167 cells. Reagent: long dsRNA against Drosophila genes. Timing: about 5 days (4 days dsRNA, then 24 h after transfection). Challenge: transfection of constitutively active membrane-tethered Notch lacking the extracellular domain, read 24 h later. Detection: 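Firefly luciferase from an E(spl)m3 reporter with active Notch, plus control-promoter and uninduced reporter wells for normalisation; unnormalised counts, duplicate wells a and b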. Direction: induced reporter light, run 1, well a and induced reporter light, run 1, well b: higher = more light from the Notch target reporter with active Notch; control promoter light, run 1, well a and control promoter light, run 1, well b: higher = more light from the viral control promoter (cell number, transfection, viability); uninduced reporter light, run 1, well a: higher = more light from the Notch target reporter without active Notch. Hit rule: 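Wells with low control signal or poorly matching duplicates excluded; duplicates averaged; per source plate, z beyond ±2 for induced/control log2 ratio or beyond ±1.8 for induced/uninduced marks a hit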. Calls: active = modifier hit (raised or lowered Notch signal); inactive = not a hit.
In all, the deposit lists about 22,000 reagents; below is an unselected part of those that have a named target and a result. In the full data, 403 (1.9%) were called active. 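Unnormalised raw counts per well; ratio z-scores behind the hit calls and whether each hit raises or lowers signal are not deposited.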 The record does not give: the amount of reagent.

Depletion of CG14618 came out at: induced reporter light, run 1, well a = 99200; induced reporter light, run 1, well b = 1.03e5; control promoter light, run 1, well a = 81960; control promoter light, run 1, well b = 1.11e5; uninduced reporter light, run 1, well a = 9788; inactive. For CG10226, the entry reads induced reporter light, run 1, well a = 1.40e5; induced reporter light, run 1, well b = 1.01e5; control promoter light, run 1, well a = 63230; control promoter light, run 1, well b = 25365; uninduced reporter light, run 1, well a = 10115; inactive. Against mRpS22, the values are induced reporter light, run 1, well a = 1.74e5; induced reporter light, run 1, well b = 2.20e5; control promoter light, run 1, well a = 2.78e5; control promoter light, run 1, well b = 3.02e5; uninduced reporter light, run 1, well a = 14095; inactive. Knock-down of CG13747 came out at: induced reporter light, run 1, well a = 1.81e5; induced reporter light, run 1, well b = 1.86e5; control promoter light, run 1, well a = 2.65e5; control promoter light, run 1, well b = 2.28e5; uninduced reporter light, run 1, well a = 17625; inactive. CG6567 showed induced reporter light, run 1, well a = 59695; induced reporter light, run 1, well b = 60285; control promoter light, run 1, well a = 79700; control promoter light, run 1, well b = 53370; uninduced reporter light, run 1, well a = 6475; inactive. With knock-down of a6, the screen gave induced reporter light, run 1, well a = 1.91e5; induced reporter light, run 1, well b = 2.01e5; control promoter light, run 1, well a = 2.65e5; control promoter light, run 1, well b = 2.76e5; uninduced reporter light, run 1, well a = 13275; inactive.

CG9400 scored induced reporter light, run 1, well a = 2.46e5; induced reporter light, run 1, well b = 1.99e5; control promoter light, run 1, well a = 3.09e5; control promoter light, run 1, well b = 2.94e5; uninduced reporter light, run 1, well a = 16455; inactive. With knock-down of CR42546 the results were induced reporter light, run 1, well a = 65310; induced reporter light, run 1, well b = 51225; control promoter light, run 1, well a = 58220; control promoter light, run 1, well b = 84100; uninduced reporter light, run 1, well a = 2365; inactive. CG7768 showed induced reporter light, run 1, well a = 1.41e5; induced reporter light, run 1, well b = 1.43e5; control promoter light, run 1, well a = 1.19e5; control promoter light, run 1, well b = 1.26e5; uninduced reporter light, run 1, well a = 11500; inactive. After knock-down of ng2 the results were induced reporter light, run 1, well a = 97770; induced reporter light, run 1, well b = 1.13e5; control promoter light, run 1, well a = 1.76e5; control promoter light, run 1, well b = 1.77e5; uninduced reporter light, run 1, well a = 7850; inactive. Silencing of CG10126 resulted in: induced reporter light, run 1, well a = 1.35e5; induced reporter light, run 1, well b = 1.67e5; control promoter light, run 1, well a = 98090; control promoter light, run 1, well b = 94835; uninduced reporter light, run 1, well a = 10845; inactive. After knock-down of Ciao1 the results were induced reporter light, run 1, well a = 1.93e5; induced reporter light, run 1, well b = 1.73e5; control promoter light, run 1, well a = 1.39e5; control promoter light, run 1, well b = 1.61e5; uninduced reporter light, run 1, well a = 12600; inactive.
